Legend:
[1] = Mass and COD balance of PAH-packed column fed with ozonated water; settings: for Column after ozonation: 4 h ozonated water; for Amount reduced, column and effluent: 4 h ozonation
[2] = Biological incubation of ozonated column effluent, species identified by GC/MS; design: key to found in ozonated effluent, 0 day / found in ozonated effluent, 5 days / found in ozonated effluent, 10 days / found in ozonated effluent, 15 days / found in ozonated effluent, 20 days: •: found; ◯: not found; settings: pyrene column effluent; for found in ozonated effluent, 0 day: biological incubation 0 day; for found in ozonated effluent, 5 days: biological incubation 5 days; for found in ozonated effluent, 10 days: biological incubation 10 days; for found in ozonated effluent, 15 days: biological incubation 15 days; for found in ozonated effluent, 20 days: biological incubation 20 days
Polyseed = experiment: Biochemical oxygen demand (BOD) test; settings: pyrene solutions
[3] = pyrene-loaded column, 4 h, 10.5 L, GC/FID
[4] = benzo[a]pyrene-loaded column, listed as BaP

O=Cc1cccc(C=O)c1-c1c(C=O)cccc1C=O [2,2′,6,6′-biphenyltetraaldehyde (3), 2,2′,6,6′-biphenyltetraaldehyde]
Effluent [1, 3]: 1.72 mg | Column after ozonation ([1]; pyrene-loaded column, GC/FID): 0 mg

O=Cc1cccc2ccc3cccc(C=O)c3c12 [4,5-phenanthrenedialdehyde (2), 4,5-phenanthrenedialdehyde]
found in ozonated effluent, 0 day [2]: • | found in ozonated effluent, 5 days [2]: • | found in ozonated effluent, 10 days [2]: • | found in ozonated effluent, 15 days [2]: • | found in ozonated effluent, 20 days [2]: • | Effluent [1, 3]: 1.43 mg | Column after ozonation ([1]; pyrene-loaded column, GC/FID): 0 mg

c1cc2c3c(c1)ccc1cccc(c13)C2 [4H-cyclopenta[def]phenanthrene (8)]
found in ozonated effluent, 0 day [2]: • | found in ozonated effluent, 5 days [2]: ◯ | found in ozonated effluent, 10 days [2]: ◯ | found in ozonated effluent, 15 days [2]: ◯ | found in ozonated effluent, 20 days [2]: ◯

c1ccc2c(c1)cc1ccc3cccc4ccc2c1c34 [Benzo[a]pyrene]
COD, amount reduced, column and effluent ([1]; benzo[a]pyrene-loaded column): 36.0 mg O2 | COD, column after ozonation ([1]; benzo[a]pyrene-loaded column): 340 mg O2 | COD, effluent ([1]; benzo[a]pyrene-loaded column): 78.0 mg O2 | mole ratio of consumed ozone to consumed BaP ([1]; benzo[a]pyrene-loaded column, 4 h): 7.6 | Effluent ([1]; benzo[a]pyrene-loaded column, 4 h, 9.75 L): 0.0 mg | Column after ozonation ([1]; benzo[a]pyrene-loaded column, GC/FID): 117 mg | Amount reduced, column and effluent [1, 4]: 32.5 mg | COD, amount reduced, column and effluent [1, 4]: 36 mg O2

c1cc2ccc3cccc4ccc(c1)c2c34 [Pyrene]
BOD5/COD ratio (Polyseed): 0.83 | BOD5/COD ratio (Polyseed; as worded in text): over 80% | BOD5 (Polyseed; means ± standard deviations of triplicates): 0.83 ± 0.15 mg/L | found in ozonated effluent, 0 day [2]: • | found in ozonated effluent, 5 days [2]: ◯ | found in ozonated effluent, 10 days [2]: ◯ | found in ozonated effluent, 15 days [2]: ◯ | found in ozonated effluent, 20 days [2]: ◯ | COD, amount reduced, column and effluent ([1]; pyrene-loaded column): 36 mg O2 | COD, column after ozonation ([1]; pyrene-loaded column): 280 mg O2 | COD, effluent ([1]; pyrene-loaded column): 116 mg O2 | mole ratio of consumed ozone to consumed pyrene ([1]; pyrene-loaded column, 4 h): 3.3 | Effluent [1, 3]: 1.24 mg | Column after ozonation ([1]; pyrene-loaded column, GC/FID): 74.6 mg | Amount reduced, column and effluent ([1]; pyrene-loaded column): 73.8 mg

CCCCOC(=O)c1ccccc1C(=O)OCc1ccccc1 [benzylbutyl phthalate (5), benzylbutyl phthalate]
found in ozonated effluent, 0 day [2]: • | found in ozonated effluent, 5 days [2]: • | found in ozonated effluent, 10 days [2]: • | found in ozonated effluent, 15 days [2]: • | found in ozonated effluent, 20 days [2]: •

c1cc2c3c(c1)ccc1cccc(c13)C2 [cyclopenta[def]phenanthrene (9)]
found in ozonated effluent, 0 day [2]: • | found in ozonated effluent, 5 days [2]: • | found in ozonated effluent, 10 days [2]: • | found in ozonated effluent, 15 days [2]: • | found in ozonated effluent, 20 days [2]: •

CCCCOC(=O)c1ccccc1C(=O)OCCCC [dibutyl phthalate (12), dibutyl phthalate]
found in ozonated effluent, 0 day [2]: • | found in ozonated effluent, 5 days [2]: • | found in ozonated effluent, 10 days [2]: • | found in ozonated effluent, 15 days [2]: • | found in ozonated effluent, 20 days [2]: •

CCOC(=O)c1ccccc1C(=O)OCC [diethyl phthalate (6), diethyl phthalate]
found in ozonated effluent, 0 day [2]: ◯ | found in ozonated effluent, 5 days [2]: ◯ | found in ozonated effluent, 10 days [2]: ◯ | found in ozonated effluent, 15 days [2]: ◯ | found in ozonated effluent, 20 days [2]: ◯

O=C1OC(=O)c2ccccc21 [phthalic anhydride (7), phthalic anhydride]
found in ozonated effluent, 0 day [2]: • | found in ozonated effluent, 5 days [2]: ◯ | found in ozonated effluent, 10 days [2]: ◯ | found in ozonated effluent, 15 days [2]: ◯ | found in ozonated effluent, 20 days [2]: ◯

O=c1c2ccccc2oc2ccccc12 [xanthone (10), xanthone]
found in ozonated effluent, 0 day [2]: • | found in ozonated effluent, 5 days [2]: ◯ | found in ozonated effluent, 10 days [2]: ◯ | found in ozonated effluent, 15 days [2]: ◯ | found in ozonated effluent, 20 days [2]: ◯

nonyl phenol [nonyl phenol (13)]
fate during the first 5 days of incubation [2]: disappearance | found in ozonated effluent, 0 day [2]: • | found in ozonated effluent, 5 days [2]: ◯ | found in ozonated effluent, 10 days [2]: ◯ | found in ozonated effluent, 15 days [2]: ◯ | found in ozonated effluent, 20 days [2]: ◯

— patent US8557565B2, “Degradation of polycyclic aromatic hydrocarbons to render them available for biodegradation” (priority 1999, dated 2013)
